Measurements as given in PubChem BioAssay AID2685 (National Center for Advancing Translational Sciences (NCATS), 2010).
The other results are listed elsewhere or left out. The main result of the screen is listed elsewhere. These columns were measured beside it and carry no call. Compounds called inactive in the main read-out are mostly missing here. Potencies come from curve fits of mixed quality, noted in brackets.

Assay: qHTS Assay for Lipid Storage Modulators in Drosophila S3 Cells;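 as to cell number change: cells counted by Cell Tracker Red CMTPX staining in the red channel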
Conditions: BODIPY lipid droplet fluorescence, 18-24 h; for cell number change: measured here: cell count max response, cells fed with added oleic acid
Procedure, shortened: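 Drosophila S3 cells got compounds at several concentrations plus oleic acid (400 uM solution). Laser-scanning cytometry with 488 nm excitation read lipid droplets at 500-530 nm and cells at 575-640 nm. Percent activity was relative to 20 uM Triacsin C.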

[1] = measured here: cell number channel AC50, cells fed with added oleic acid
[2] = measured here: lipid fluorescence (Fed channel) AC50, cells fed with added oleic acid

Row | SMILES | cell number change | AC50 [1] | AC50 [2]
1 | CN(C)c1nc(C=C(C#N)C#N)c(Cl)n1-c1ccc(F)cc1 | -37.5% | 0.326 µM [falling, full curve] | 
2 | Cc1cccc(Cn2nc(C)c(NC(=O)c3ccc(F)cc3)c2C)c1 |  |  | 0.326 µM [rising, full curve, poor fit]
3 | COc1ccc(C(=O)N(Cc2ccccc2)c2cccc(C)c2)cc1 | 31.9% |  | 
4 | COc1ccc(NC(=O)CN(C)CC(=O)NC(=O)NC2CCCCC2)cc1 | -7.98% | 3.66 µM [falling, single point] | 4.11 µM [falling, partial curve, poor fit]
5 | Cc1ccccc1-n1nnnc1SC(C)C(=O)NC1CCCc2ccccc21 (stereo unspecified) | -25.5% |  | 16.4 µM [falling, partial curve]
6 | COCCNC(=O)C(OC(=O)c1ccco1)c1ccccc1F (stereo unspecified) | 1.32% |  | 
7 | COc1ccc(-n2nc([N+](=O)[O-])c(=NCCc3ccc(Cl)cc3)n2O)cc1 | -18.6% |  | 29.1 µM [falling, single point]
8 | O=C(c1cc2ccccn2n1)N1CCN(c2ccccn2)CC1 | 10.2% |  | 7.31 µM [rising, full curve, poor fit]
9 | COc1cc(Cl)c(C)cc1Nc1ncccn1 | 7.08% |  | 
10 | O=C(Nc1cccc(NC(=O)c2ccc(Cl)cc2)n1)c1ccc(Cl)cc1 | -0.587% |  | 0.0461 µM [falling, full curve, poor fit]
11 | COc1ccccc1NS(=O)(=O)c1ccc2oc(SCC(=O)N3CCNC3=O)nc2c1 | 5.51% |  | 3.26 µM [falling, single point]
12 | Cc1cccc(N=C2NC(=O)/C(=C/c3cccs3)S2)c1 | 7.04% |  | 11.6 µM [rising, partial curve]
13 | O=C(NC1CC1)c1ccc(CS(=O)(=O)c2c(Cl)cccc2Cl)o1 |  | 1.3 µM [rising, single point] | 0.058 µM [falling, full curve, poor fit]
14 | COc1ccc(S(=O)(=O)N2CCN(C(=O)c3cc(-c4ccccc4OC)n[nH]3)CC2)cc1 | -2.02% |  | 29.1 µM [falling, single point]
15 | O=C(CN1C(=O)C2C3C=CC(C3)C2C1=O)Nc1ccc(S(=O)(=O)N2CCCCC2)cc1 (stereo unspecified) | -27.8% | 0.00517 µM [falling, full curve, poor fit] | 
16 | CC1CCCN(C(=O)COC(=O)/C=C/c2ccc(C(F)(F)F)cc2)C1 (stereo unspecified) | -21.5% |  | 6.51 µM [falling, single point]
17 | CN(C)c1ccc(NC(=O)Nc2cccc3ccccc23)cc1 | -7.53% | 7.31 µM [falling, single point] | 
18 | CCCCCc1nnc(NC(=O)c2ccc3nc[nH]c3c2)s1 | -28.9% |  | 29.1 µM [falling, single point]
19 | CN(C)c1nnnn1-c1ccc(Cl)cc1Cl |  |  | 0.13 µM [falling, full curve, poor fit]
20 | COCCN(CC(=O)Nc1ccccc1C)S(=O)(=O)c1ccc(S(=O)(=O)N2CCCC2)cc1 |  | 3.26 µM [rising, partial curve] | 6.51 µM [rising, single point]

In the list so far, these contain two or more sulfur atoms.
Row | SMILES | cell number change | AC50 [1] | AC50 [2]
11 | COc1ccccc1NS(=O)(=O)c1ccc2oc(SCC(=O)N3CCNC3=O)nc2c1 | 5.51% |  | 3.26 µM [falling, single point]
12 | Cc1cccc(N=C2NC(=O)/C(=C/c3cccs3)S2)c1 | 7.04% |  | 11.6 µM [rising, partial curve]
20 | COCCN(CC(=O)Nc1ccccc1C)S(=O)(=O)c1ccc(S(=O)(=O)N2CCCC2)cc1 |  | 3.26 µM [rising, partial curve] | 6.51 µM [rising, single point]

(listing goes on)

Row | SMILES | cell number change | AC50 [1] | AC50 [2]
21 | COc1ccc(N(C)C(=O)C2CCCN2S(=O)(=O)c2cccc3nsnc23)cc1 (stereo unspecified) | -27.9% |  | 0.326 µM [rising, full curve, poor fit]
22 | Cc1nnc(NC(=O)Nc2ccc(Cl)c(Cl)c2)s1 | 28.8% |  | 6.51 µM [rising, partial curve]
23 | COc1ccc(C(=O)NNC(=O)CSc2nnnn2-c2cc(OC)cc(OC)c2)cc1 | 2.78% |  | 6.51 µM [rising, single point]
24 | O=c1[nH]c2cc3c(cc2cc1CN(Cc1ccccc1)Cc1nnnn1Cc1ccco1)OCCO3 | -27.9% |  | 0.00517 µM [falling, full curve, poor fit]
25 | Cc1[nH]c2ccccc2c1C(=O)CSc1nc2ccccc2[nH]1 | -6.54% |  | 23.1 µM [rising, single point]
26 | CC(NC(=O)c1cccc(Cl)c1)C1CC2CCC1C2 (stereo unspecified) | -7.21% |  | 29.1 µM [falling, single point]
27 | COc1ccc(CN2CCC(=O)NC2=O)cc1 | -8.22% |  | 0.58 µM [falling, single point]
28 | Cc1cccc(NC(=O)CN2CCCCCC2)c1 | 23.5% |  | 0.13 µM [rising, full curve, poor fit]
29 | O=C(c1ccc(CS(=O)(=O)c2ccc(Br)cc2)o1)N1CCOCC1 | 2.37% |  | 
30 | O=C(NN1CCOCC1)c1ccc(F)cc1 | 20.3% |  | 29.1 µM [rising, single point]
31 | CCC(C)(C)n1nnnc1C(c1ccncc1)N1CCC(Cc2ccccc2)CC1 (stereo unspecified) | 44.4% | 1.84 µM [rising, partial curve, poor fit] | 0.82 µM [rising, single point]
32 | CCOc1ccc(C2c3[nH]c4ccccc4c3CCN2Cc2cccn2-c2ncccn2)cc1 (stereo unspecified) | 26.8% |  | 13 µM [rising, partial curve, poor fit]
33 | Cc1ccc(NC(=O)c2ccc(F)cc2F)cc1NS(C)(=O)=O | 56.2% |  | 
34 | Cc1ccc(C)c(Nc2ncnc(N)c2[N+](=O)[O-])c1 | -19.4% |  | 
35 | O=S(=O)(NCCCN1CCOCC1)c1ccc(Cl)cc1 | 11.7% |  | 0.58 µM [rising, single point]
36 | Cc1cccc(C)c1OC(=O)CSc1nnc(-c2ccccc2)o1 | -43.1% | 29.1 µM [falling, single point] | 29.1 µM [falling, single point]
37 | COC(=O)c1[nH]c2ccccc2c1NC(=O)CN1CCN(c2cccc(Cl)c2)CC1 |  |  | 10.3 µM [falling, partial curve]
38 | O=C(CSc1nnnn1Cc1ccccc1)Nc1cccc(F)c1 | -2.56% |  | 0.0651 µM [rising, partial curve, poor fit]
39 | CC(=O)c1sc(C(=O)O)c(-c2ccco2)c1-c1ccco1 | -14.6% |  | 2.06 µM [falling, full curve, poor fit]
40 | O=C(C(=O)N1CCN(c2ccccc2)CC1)c1cn(CC(=O)N2CCCCCC2)c2ccccc12 | 22% |  | 0.82 µM [falling, full curve, poor fit]

Row | SMILES | cell number change | AC50 [1] | AC50 [2]
41 | Clc1ccc(-c2cnn3c(-c4ccncc4)ccnc23)cc1 | -17% | 7.31 µM [falling, single point] | 20.6 µM [falling, single point]
42 | COC(=O)c1cc(S(=O)(=O)NCC2CCN(Cc3ccc(C)cc3)CC2)cn1C | 1.52% |  | 29.1 µM [rising, single point]
43 | C=CCn1c(=O)c2ccccc2n2c(SCc3nc4ccccc4s3)nnc12 | 64.8% | 0.164 µM [rising, full curve] | 
44 | S=c1[nH]nc(-c2ccco2)n1Cc1ccccc1 |  | 3.26 µM [rising, partial curve, poor fit] | 1.03 µM [rising, full curve, poor fit]
45 | O=C(N/N=C/c1ccc[nH]1)c1ccccc1OCc1ccc(F)cc1 | -12.7% |  | 2.06 µM [rising, partial curve]
46 | COc1ccc(S(=O)(=O)Nc2ccc(S(=O)(=O)NCC3CCCO3)cc2)cc1 (stereo unspecified) | -3.48% |  | 
47 | CC(=O)Nc1ccc2sc(NC(=O)CN3CCOCC3)nc2c1 | -16.1% |  | 0.731 µM [falling, single point]
48 | COc1ccc(S(=O)(=O)N2CCOC23CCN(C(=O)c2ccc(Cl)cc2Cl)CC3)cc1 | 21.5% |  | 18.4 µM [falling, single point]
49 | Cc1c(Cl)cccc1NC(=O)Cn1nnc(C(=O)NCc2cccs2)c1N | 8.71% | 0.092 µM [rising, full curve, poor fit] | 
50 | Cc1ccc(N2C(=O)c3ccccc3C2Nc2ccccc2)nc1 (stereo unspecified) | 45.3% | 3.26 µM [rising, full curve] | 6.51 µM [rising, partial curve]
51 | Cc1ccccc1Cn1cc(CCC(=O)N2CCOCC2)c2ccccc21 | 16.2% | 0.058 µM [rising, full curve, poor fit] | 
52 | CCc1ccc(-c2csc(-c3c[nH]c4ccccc34)n2)cc1 | -45.5% | 18.4 µM [falling, single point] | 29.1 µM [falling, single point]
53 | COc1ccc(CCNC(=O)c2nnn(CC(=O)Nc3cccc(F)c3)c2N)cc1OC | 9.63% |  | 
54 | CCOC(=O)N1CCN(C(=O)CSc2ccc3nnc(CCNC(=O)c4ccc(OC)cc4)n3n2)CC1 | -14.7% |  | 5.8 µM [falling, full curve, poor fit]
55 | O=C(Nc1nnc(-c2ccco2)o1)c1ccc(Cl)s1 | -28.2% |  | 6.51 µM [falling, single point]
56 | Cc1ccc(C(=O)N2CCC3(CC2)NCCc2[nH]cnc23)cc1 | 12.7% |  | 3.66 µM [falling, partial curve, poor fit]
57 | CCN(CC)CCOc1cccc(C(C)C)c1 | -52.5% | 6.51 µM [falling, full curve, poor fit] | 5.17 µM [falling, full curve]
58 | CCCn1c2ccccc2c2nnc(SCC(=O)Nc3cc(C)on3)nc21 |  | 0.13 µM [rising, full curve, poor fit] | 
59 | O=C(NCc1ccc2c(c1)OCO2)c1ccc(Cl)c(S(=O)(=O)N2CCOCC2)c1 | 44.5% | 0.58 µM [rising, full curve, poor fit] | 3.66 µM [rising, partial curve, poor fit]
60 | CC1Cc2cc(S(=O)(=O)N3CCC(C(=O)N(C)Cc4ccco4)CC3)ccc2N1C(=O)C1CCC1 (stereo unspecified) | -8.02% |  | 29.1 µM [rising, single point]
